Assay results published in article PMC9816117.

Key:
[1] = system: 6xHis-TAL20Xam668 (Xanthomonas phaseoli pv. manihotis (Xam668)); test: competition with a labelled probe; conditions: excess unlabeled oligo against labeled unmethylated EBE; LightShift Chemiluminescent EMSA Kit per manufacturer (buffer, salt, pH not stated); 0-1000 fmol TAL20; room temperature 20 min (competitor pre-incubated 20 min); recombinant protein; protein details: N-terminal 6xHis (pDEST17)
[2] = system: 6xHis-TAL20Xam668 (Xanthomonas phaseoli pv. manihotis (Xam668)); test: EMSA; conditions: LightShift Chemiluminescent EMSA Kit per manufacturer (buffer, salt, pH not stated); 0-1000 fmol TAL20; room temperature 20 min (competitor pre-incubated 20 min); recombinant protein; protein details: N-terminal 6xHis (pDEST17); label: biotin 3' end (probe)

Row | Sequence | binding result [1] | binding result [2]
1 | CCCTATATAAACGCTTCTCGCCCATCCATCATT (double strand) [MeSWEET10a EBE, unmethylated, unlabeled competitor] | binds | 
2 | CCCTATATAAACGCTTCTCGCCCATCCATCATT (double strand) [MeSWEET10a EBE, unmethylated] |  | binds

Construct, isoform or probe ends are uncertain for at least one entry.
